Source: article PMC8051072
Results are given in words; binding and its absence hold for the method and conditions named. For some of these results: Binding seen in cells or lysates may run through a third protein. Some results given as binding are weak or reduced against the parent protein; the word gives no strength. For some of these results: Tags and fused reporters may be left off the sequences shown. One block for each substance: values may come before it.

Protein sequences, listed by entry. Tags and fused reporters are not part of them.
UniProt P35222: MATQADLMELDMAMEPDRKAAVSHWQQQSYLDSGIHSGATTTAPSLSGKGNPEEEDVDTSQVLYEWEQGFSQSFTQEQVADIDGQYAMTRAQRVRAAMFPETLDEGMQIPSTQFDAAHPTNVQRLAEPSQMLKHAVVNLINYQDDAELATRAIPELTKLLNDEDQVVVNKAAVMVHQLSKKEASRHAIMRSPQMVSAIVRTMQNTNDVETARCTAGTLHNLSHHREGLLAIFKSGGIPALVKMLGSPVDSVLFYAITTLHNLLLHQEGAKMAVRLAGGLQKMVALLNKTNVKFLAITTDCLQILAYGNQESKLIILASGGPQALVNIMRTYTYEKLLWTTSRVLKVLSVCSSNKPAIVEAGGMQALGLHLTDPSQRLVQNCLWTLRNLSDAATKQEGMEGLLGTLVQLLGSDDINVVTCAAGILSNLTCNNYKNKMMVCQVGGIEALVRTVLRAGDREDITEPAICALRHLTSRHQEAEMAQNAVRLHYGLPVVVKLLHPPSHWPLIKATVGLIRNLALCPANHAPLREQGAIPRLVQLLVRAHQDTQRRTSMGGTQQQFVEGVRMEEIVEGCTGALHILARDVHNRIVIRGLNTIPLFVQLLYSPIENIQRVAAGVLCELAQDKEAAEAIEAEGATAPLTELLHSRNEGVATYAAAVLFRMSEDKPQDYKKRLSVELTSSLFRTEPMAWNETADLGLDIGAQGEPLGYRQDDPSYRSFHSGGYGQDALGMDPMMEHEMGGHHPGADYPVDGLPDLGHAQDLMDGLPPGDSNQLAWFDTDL
UniProt P25054: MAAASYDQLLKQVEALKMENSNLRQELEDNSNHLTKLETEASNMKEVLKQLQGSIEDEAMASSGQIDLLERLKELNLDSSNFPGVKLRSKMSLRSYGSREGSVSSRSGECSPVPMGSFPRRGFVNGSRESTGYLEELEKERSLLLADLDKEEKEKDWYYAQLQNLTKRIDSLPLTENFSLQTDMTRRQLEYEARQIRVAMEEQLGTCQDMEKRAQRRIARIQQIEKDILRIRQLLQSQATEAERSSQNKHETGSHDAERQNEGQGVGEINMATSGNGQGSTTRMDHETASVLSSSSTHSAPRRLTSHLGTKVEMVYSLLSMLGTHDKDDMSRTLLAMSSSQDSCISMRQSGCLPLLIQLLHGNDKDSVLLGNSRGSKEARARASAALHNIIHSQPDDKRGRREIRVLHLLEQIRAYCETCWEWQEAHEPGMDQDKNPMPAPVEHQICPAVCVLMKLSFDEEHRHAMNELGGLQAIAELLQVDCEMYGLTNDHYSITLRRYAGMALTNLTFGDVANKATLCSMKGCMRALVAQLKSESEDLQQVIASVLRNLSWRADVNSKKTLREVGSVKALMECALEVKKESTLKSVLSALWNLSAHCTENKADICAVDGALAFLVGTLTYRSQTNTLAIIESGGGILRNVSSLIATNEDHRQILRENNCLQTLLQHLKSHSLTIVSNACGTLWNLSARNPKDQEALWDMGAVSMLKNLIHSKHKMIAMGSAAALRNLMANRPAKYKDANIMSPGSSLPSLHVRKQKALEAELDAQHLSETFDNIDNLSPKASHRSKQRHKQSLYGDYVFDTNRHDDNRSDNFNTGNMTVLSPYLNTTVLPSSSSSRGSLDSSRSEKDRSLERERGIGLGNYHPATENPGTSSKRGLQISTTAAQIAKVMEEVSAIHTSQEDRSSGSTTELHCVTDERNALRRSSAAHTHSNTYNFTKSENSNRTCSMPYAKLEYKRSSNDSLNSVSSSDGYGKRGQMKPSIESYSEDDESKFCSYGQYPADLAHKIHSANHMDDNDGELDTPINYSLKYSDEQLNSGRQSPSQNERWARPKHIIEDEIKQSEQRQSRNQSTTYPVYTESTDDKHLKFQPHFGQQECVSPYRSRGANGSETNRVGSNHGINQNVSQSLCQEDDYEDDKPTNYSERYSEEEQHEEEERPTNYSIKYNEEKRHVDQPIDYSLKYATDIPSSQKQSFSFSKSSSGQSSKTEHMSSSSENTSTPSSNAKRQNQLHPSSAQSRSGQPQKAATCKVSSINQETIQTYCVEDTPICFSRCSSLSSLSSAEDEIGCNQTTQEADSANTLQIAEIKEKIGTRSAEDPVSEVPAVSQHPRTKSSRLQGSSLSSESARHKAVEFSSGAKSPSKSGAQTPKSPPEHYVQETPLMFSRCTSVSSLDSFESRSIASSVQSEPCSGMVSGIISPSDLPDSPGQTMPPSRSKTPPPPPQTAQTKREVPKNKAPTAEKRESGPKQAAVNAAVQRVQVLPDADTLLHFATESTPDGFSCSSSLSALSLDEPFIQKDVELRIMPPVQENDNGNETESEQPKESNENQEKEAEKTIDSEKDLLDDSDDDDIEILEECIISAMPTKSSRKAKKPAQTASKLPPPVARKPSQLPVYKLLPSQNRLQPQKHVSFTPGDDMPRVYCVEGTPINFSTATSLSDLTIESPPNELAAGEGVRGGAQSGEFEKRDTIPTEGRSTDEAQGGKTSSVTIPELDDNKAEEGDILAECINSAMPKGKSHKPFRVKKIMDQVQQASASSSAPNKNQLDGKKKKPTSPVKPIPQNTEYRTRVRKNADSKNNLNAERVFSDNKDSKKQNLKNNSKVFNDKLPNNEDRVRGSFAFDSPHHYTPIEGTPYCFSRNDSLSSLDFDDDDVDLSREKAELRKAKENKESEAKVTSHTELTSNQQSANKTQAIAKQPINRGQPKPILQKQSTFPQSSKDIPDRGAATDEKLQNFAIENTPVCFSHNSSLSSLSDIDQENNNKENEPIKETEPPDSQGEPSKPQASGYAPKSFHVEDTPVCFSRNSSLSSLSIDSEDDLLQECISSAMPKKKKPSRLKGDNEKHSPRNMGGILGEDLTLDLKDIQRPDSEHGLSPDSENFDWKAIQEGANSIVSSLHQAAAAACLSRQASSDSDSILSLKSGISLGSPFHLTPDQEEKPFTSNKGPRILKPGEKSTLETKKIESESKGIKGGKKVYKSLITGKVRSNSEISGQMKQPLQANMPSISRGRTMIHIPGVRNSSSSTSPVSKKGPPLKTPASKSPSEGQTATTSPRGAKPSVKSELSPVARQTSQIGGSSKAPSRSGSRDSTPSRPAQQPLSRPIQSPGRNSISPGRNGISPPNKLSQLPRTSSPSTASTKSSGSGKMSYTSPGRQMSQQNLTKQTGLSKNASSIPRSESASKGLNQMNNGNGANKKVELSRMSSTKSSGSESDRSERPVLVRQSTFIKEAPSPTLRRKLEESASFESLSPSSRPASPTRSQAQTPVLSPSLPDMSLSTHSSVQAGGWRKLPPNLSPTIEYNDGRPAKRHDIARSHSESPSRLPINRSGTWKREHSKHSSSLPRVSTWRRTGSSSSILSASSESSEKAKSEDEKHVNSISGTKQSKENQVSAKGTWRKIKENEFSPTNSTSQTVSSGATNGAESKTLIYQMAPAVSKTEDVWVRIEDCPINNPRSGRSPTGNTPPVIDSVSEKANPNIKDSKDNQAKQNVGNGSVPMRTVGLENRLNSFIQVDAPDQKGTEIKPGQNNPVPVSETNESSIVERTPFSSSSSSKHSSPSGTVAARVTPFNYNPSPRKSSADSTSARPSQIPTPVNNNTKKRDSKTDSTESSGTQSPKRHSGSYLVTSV
UniProt O15169: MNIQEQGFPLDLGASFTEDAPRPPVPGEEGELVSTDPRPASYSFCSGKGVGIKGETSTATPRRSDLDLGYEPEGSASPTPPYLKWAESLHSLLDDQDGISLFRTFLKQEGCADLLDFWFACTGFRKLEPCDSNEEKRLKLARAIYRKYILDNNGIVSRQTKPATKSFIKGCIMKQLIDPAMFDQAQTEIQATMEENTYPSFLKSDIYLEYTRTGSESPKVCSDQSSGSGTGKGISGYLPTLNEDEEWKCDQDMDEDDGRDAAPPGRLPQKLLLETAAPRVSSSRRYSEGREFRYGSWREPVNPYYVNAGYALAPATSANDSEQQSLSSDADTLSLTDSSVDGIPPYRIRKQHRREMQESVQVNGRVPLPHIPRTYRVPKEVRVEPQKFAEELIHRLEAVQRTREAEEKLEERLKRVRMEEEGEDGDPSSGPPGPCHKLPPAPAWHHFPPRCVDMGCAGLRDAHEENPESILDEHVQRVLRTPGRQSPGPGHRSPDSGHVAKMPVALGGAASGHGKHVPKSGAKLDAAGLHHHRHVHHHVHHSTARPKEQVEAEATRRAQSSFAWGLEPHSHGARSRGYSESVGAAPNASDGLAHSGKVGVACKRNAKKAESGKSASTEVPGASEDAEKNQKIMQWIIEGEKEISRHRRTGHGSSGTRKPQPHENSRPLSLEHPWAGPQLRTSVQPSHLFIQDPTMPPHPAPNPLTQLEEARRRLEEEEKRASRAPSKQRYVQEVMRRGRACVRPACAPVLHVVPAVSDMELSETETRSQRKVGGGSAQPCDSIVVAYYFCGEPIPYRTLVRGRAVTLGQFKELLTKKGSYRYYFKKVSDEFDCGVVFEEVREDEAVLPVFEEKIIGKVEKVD

Tests used:
[1] = biological target: β-catenin (endogenous) (human (endogenous in DLD1 and HT29)) (UniProt P35222); experiment: co-IP; anti-β-catenin antibody; lysates of HT29 or DLD1 cells transfected with Flag-Sec62 or its mutants, or of Sec62-depleted and control cells; Buffer A, antibody on protein A-Sepharose, 2 h at 4 °C
[2] = biological target: APC (wild-type, endogenous in RKO cells) (human (endogenous in RKO)) (UniProt P25054); experiment: co-IP; anti-APC antibody; lysates of DLD1 cells, or of RKO cells cultured with Wnt3a medium, transfected with Flag-Sec62 or Flag vector; Buffer A, antibody on protein A-Sepharose, 2 h at 4 °C
GST-Sec62 = biological target: T1, GST-Sec62 (UniProt Q99442); experiment: pull-down; GST pull-down with GST-Sec62, its deletion mutants or GST-Sec62 DA and His-β-catenin; both purified
T1 sequence: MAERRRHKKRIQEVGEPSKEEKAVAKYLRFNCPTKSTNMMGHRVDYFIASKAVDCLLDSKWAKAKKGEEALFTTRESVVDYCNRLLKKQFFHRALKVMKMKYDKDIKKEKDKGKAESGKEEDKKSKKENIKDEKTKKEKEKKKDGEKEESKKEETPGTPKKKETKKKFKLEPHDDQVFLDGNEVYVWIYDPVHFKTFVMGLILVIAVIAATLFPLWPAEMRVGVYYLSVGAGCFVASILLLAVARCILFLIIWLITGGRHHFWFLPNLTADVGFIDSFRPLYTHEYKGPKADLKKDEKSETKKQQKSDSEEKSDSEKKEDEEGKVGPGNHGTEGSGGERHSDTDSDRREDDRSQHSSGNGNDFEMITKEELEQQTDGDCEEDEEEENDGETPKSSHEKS

[3] = biological target: T2, Sec62 (endogenous) (human (endogenous in DLD1)) (UniProt Q99442); experiment: co-IP; endogenous proteins; DLD1 lysates immunoprecipitated with anti-Sec62 or anti-β-catenin antibody; Buffer A (25 mM Tris-Cl pH 7.5, 150 mM KCl, 1 mM DTT, 2 mM EDTA, 0.5 mM PMSF, 0.2% Nonidet P-40), antibody on protein A-Sepharose, 2 h at 4 °C
T2 sequence: T1 sequence

- binding [1]: binds
- binding [2]: binds
Substance: AXIN1 (from UniProt O15169 1-862)

- binding (GST-Sec62): binds
Substance: His-β-catenin (from UniProt P35222 1-781)

- binding [3]: binds
Substance: β-catenin (endogenous) (from UniProt P35222 1-781)
